Data as given in PubChem BioAssay AID1224828 (NIAID, 2016)

- Assay: 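Find genes required for NF-kappaB p65 moving into the nucleus after LPS in mouse macrophages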 (primary screen)
- Cell system: mouse RAW264.7 G9 macrophage reporter cells (GFP-p65, Tnf promoter-mCherry)
- Reagent: siRNA pool against mouse genes, 100 nM
- Timing: 2 days siRNA transfection, then 40 min LPS before fixation
- Challenge: LPS (Salmonella minnesota R595) at 10 ng/ml
- Detection: 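Microscopy ratio of nuclear to perinuclear-ring GFP-p65 signal, scaled to the plate median; gene score is the average of two replicate robust z-scores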
- Reading the numbers: p65 translocation robust z-score: higher = more nuclear NF-kappaB p65 after LPS than the plate median; nuclear/cytoplasmic p65 ratio: higher = more nuclear NF-kappaB p65
- Active means: 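Active if robust z is above 3.3 (negative regulators) or below -1.56, the Tlr4 control median (positive regulators); activity score 50 or more; control wells not called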
- Meaning of the calls: active = hit (p65 shift raised or lowered); inactive = no clear change
This is an unselected part of about 17,000 deposited reagents. Over the whole deposit, 762 (4.5%) were called active. 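Active calls include both raised and lowered p65 entry, mostly lowered; wells with fewer than 50 cells lack a z-score.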 Raw values vary from plate to plate and are shown uncorrected. Entries without a mark were called inactive.

| p65 translocation robust z-score | nuclear/cytoplasmic p65 ratio, rep 1 | nuclear/cytoplasmic p65 ratio, rep 2 | low cell count flag | Target gene |
| --- | --- | --- | --- | --- |
| -1.59 (active) | 1.33 | 1.33 | enough cells to score | M1ap |
| -1.32 | 1.37 | 1.52 | enough cells to score | Adcy3 |
| -0.48 | 1.38 | 1.36 | enough cells to score | Odc1 |
| 0.23 | 1.47 | 1.58 | enough cells to score | Chchd6 |
| -0.19 | 1.51 | 1.31 | enough cells to score | Pax3 |
| – | 1.43 | 1.3 | fewer than 50 cells per well; well left out of scoring | Dscc1 |
| – | 1.15 | 1.21 | fewer than 50 cells per well; well left out of scoring | Jkampl |
| 1.45 | 1.49 | 1.72 | enough cells to score | Fcho2 |
| -0.58 | 1.44 | 1.27 | enough cells to score | Cyp2a5 |
| -0.4 | 1.4 | 1.39 | enough cells to score | Plpp3 |
| -0.77 | 1.51 | 1.49 | enough cells to score | Akp3 |
| 1.16 | 1.83 | 1.89 | enough cells to score | Wipi1 |
| -0.39 | 1.26 | 1.2 | enough cells to score | Syngr2 |
| – | 1.53 | 1.25 | fewer than 50 cells per well; well left out of scoring | Vangl2 |
| -0.16 | 1.37 | 1.4 | enough cells to score | Spmip8 |
| – | 1.08 | 1.27 | fewer than 50 cells per well; well left out of scoring | 4930412M03Rik |
| -2.63 (active) | 1.13 | 1.23 | enough cells to score | Gpd1l |
| 0.43 | 1.41 | 1.31 | enough cells to score | Tsr2 |
| -0.28 | 1.39 | 1.14 | enough cells to score | Rassf4 |
| – | 1.36 | 1.47 | fewer than 50 cells per well; well left out of scoring | Zfp944 |
| – | 1.25 | 1.74 | fewer than 50 cells per well; well left out of scoring | Tmem138 |
| -1.22 | 1.39 | 1.47 | enough cells to score | Or4c110 |
| 1.97 | 2.01 | 1.82 | enough cells to score | Or8k24 |
| 0.9 | 1.93 | 1.73 | enough cells to score | Mrgpra8 |
| – | 1.37 | 1.47 | fewer than 50 cells per well; well left out of scoring | Aen |
| 0.76 | 1.55 | 1.3 | enough cells to score | Zdhhc21 |
| 0.03 | 1.58 | 1.42 | enough cells to score | 1700129L04Rik (retired record) |
| 2.36 | 1.63 | 1.92 | enough cells to score | A530053G22Rik |
| – | 2.17 | 1.17 | fewer than 50 cells per well; well left out of scoring | Psmd6 |
| 1.82 | 1.24 | 1.45 | enough cells to score | Zfp536 |
| 0.71 | 1.54 | 1.45 | enough cells to score | Cubn |
| 0.68 | 1.5 | 1.48 | enough cells to score | Grik4 |
| 1.05 | 1.6 | 1.48 | enough cells to score | Gabrq |
| 1.72 | 1.74 | 1.79 | enough cells to score | Fnbp4 |
| -1.2 | 1.28 | 1.4 | enough cells to score | Nudt19 |
| 0.93 | 1.64 | 2.01 | enough cells to score | Apon |
| 0.05 | 1.48 | 1.2 | enough cells to score | Zfp260 |
| 0.01 | 1.3 | 1.27 | enough cells to score | Ccdc83 |
| 0.14 | 2.04 | 1.4 | enough cells to score | Cat |
| – | 1.25 | 1.09 | fewer than 50 cells per well; well left out of scoring | Tbl2 |
| -0.1 | 1.46 | 1.33 | enough cells to score | Ascc2 |
| 0.17 | 1.67 | 1.43 | enough cells to score | Map3k5 |
| -0.19 | 1.59 | 1.59 | enough cells to score | Anxa11 |
| 1.99 | 1.67 | 1.89 | enough cells to score | Ube2g2 |
| 0.02 | 1.67 | 1.57 | enough cells to score | Asgr1 |
| -1.8 (active) | 1.13 | 1.08 | enough cells to score | Slc11a1 |
| 0.38 | 1.43 | 1.26 | enough cells to score | Rpl35 |
| -1.92 (active) | 1.38 | 1.25 | enough cells to score | Large2 |
| -1.97 (active) | 1.32 | 1.2 | enough cells to score | Adgrb3 |
| -1.02 | 1.4 | 1.42 | enough cells to score | Atoh1 |
| -2.48 (active) | 1.08 | 1.18 | enough cells to score | Bin3 |
| – | 1.38 | 1.28 | fewer than 50 cells per well; well left out of scoring | Senp3 |
| -1.89 (active) | 1.08 | 1.25 | enough cells to score | Proser2 |
| -1.24 | 1.44 | 1.58 | enough cells to score | Ccdc106 |
| – | 1.25 | 1.37 | fewer than 50 cells per well; well left out of scoring | 2410004B18Rik |
| -0.28 | 1.31 | 1.24 | enough cells to score | Hjv |
| 0.14 | 1.57 | 1.7 | enough cells to score | Atf1 |
| 0.39 | 1.43 | 1.32 | enough cells to score | Slc22a17 |
| -0.99 | 1.41 | 1.7 | enough cells to score | Ly6g2 |

Targets listed so far whose gene name starts with T or t:
| p65 translocation robust z-score | nuclear/cytoplasmic p65 ratio, rep 1 | nuclear/cytoplasmic p65 ratio, rep 2 | low cell count flag | Target gene |
| --- | --- | --- | --- | --- |
| 0.43 | 1.41 | 1.31 | enough cells to score | Tsr2 |
| – | 1.25 | 1.74 | fewer than 50 cells per well; well left out of scoring | Tmem138 |
| – | 1.25 | 1.09 | fewer than 50 cells per well; well left out of scoring | Tbl2 |
